This is an account of results in PMC2778643, “Differential role of the menthol-binding residue Y745 in the antagonism of thermally gated TRPM8 channels” (Molecular Pain, 2009).

By UniProt entry, the sequences of proteins in these tests, tags left out.
UniProt Q8R4D5, whole entry: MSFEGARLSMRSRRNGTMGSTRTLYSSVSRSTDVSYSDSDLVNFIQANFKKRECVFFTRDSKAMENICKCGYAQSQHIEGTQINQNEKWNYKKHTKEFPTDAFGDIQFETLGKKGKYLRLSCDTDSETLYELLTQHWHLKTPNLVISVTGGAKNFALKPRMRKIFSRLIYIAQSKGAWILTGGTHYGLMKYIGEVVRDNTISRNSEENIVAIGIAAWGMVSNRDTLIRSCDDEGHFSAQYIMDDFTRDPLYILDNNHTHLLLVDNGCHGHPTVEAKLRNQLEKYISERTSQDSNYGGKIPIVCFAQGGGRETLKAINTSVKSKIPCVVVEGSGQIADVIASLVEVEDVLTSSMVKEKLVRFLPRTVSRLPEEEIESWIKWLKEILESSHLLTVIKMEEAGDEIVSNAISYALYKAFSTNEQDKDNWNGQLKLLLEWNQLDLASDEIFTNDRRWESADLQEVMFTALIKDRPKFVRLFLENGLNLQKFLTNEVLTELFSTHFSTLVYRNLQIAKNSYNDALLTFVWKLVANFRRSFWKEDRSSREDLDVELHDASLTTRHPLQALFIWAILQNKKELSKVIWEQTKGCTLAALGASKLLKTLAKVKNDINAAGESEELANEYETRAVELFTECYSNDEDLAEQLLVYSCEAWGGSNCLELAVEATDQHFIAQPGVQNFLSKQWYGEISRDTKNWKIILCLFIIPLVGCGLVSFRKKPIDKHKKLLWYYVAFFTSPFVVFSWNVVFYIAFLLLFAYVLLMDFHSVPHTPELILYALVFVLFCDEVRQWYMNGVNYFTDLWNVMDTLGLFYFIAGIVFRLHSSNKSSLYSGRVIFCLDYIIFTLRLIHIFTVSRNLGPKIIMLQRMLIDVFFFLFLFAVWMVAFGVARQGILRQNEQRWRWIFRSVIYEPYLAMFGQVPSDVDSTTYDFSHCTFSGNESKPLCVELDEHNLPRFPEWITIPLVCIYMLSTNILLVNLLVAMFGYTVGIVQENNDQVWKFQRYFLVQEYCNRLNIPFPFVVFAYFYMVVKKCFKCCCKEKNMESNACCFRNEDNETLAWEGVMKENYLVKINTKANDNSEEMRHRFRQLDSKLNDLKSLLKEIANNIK

The test system of assay [1] is TRPM8-wt channel. The following applies: 100 μM menthol-activated TRPM8-wt, electrophysiology (EP), block estimated at +50 mV; cited from earlier work.
Assay [2] concerns the target T1, TRPM8-wt channel (Mus musculus, UniProt Q8R4D5).
T1 construct: The full length cDNA encoding mouse TRPM8 (NM_134252) in pcDNA5; expressed in transfected cells; host or cells: HEK293
Put plainly: Calcium imaging (Fura-2) of HEK293 cells expressing TRPM8-wt. The following applies: cold-activated TRPM8-wt, calcium imaging (CI), this work. It is filed as cell-based. The procedure:
The full length cDNA encoding mouse TRPM8 (NM_134252) in pcDNA5 (Invitrogen) was kindly provided by Dr. Ardem Patapoutian, (Scripps Research Institute, La Jolla, CA). The TRPM8-Y745H mutant was obtained by site-directed mutagenesis with the following primers: (for) 5'-[…]-3'; (rev) 5'-[…]-3', and Pfu Turbo Taq DNA Polymerase (Roche).
HEK293 cells were cultured in DMEM containing 10% of foetal bovine serum and antibiotics, and plated in 2 cm^2 wells at 400.000-500.000 cells/well. 20-24 h after plating, the cells were co-transfected with eGFP (0.3 μg/well) and TRPM8-wt or TRPM8-Y745H (2 μg/well) by incubating them with a solution containing the plasmid DNA and Lipofectamine 2000 (Invitrogen) for 5 hours. Subsequently, the cells were trypsinized and replated on poly-L-lysine-coated round coverslips (6 mm diameter). […]
Prior to experiment, HEK293 cells transfected with the TRPM8-wt/Y745H constructs were incubated with 5 μM Fura-2AM dissolved in the bath solution and 0.02% Pluronic (both from Invitrogen) for 40 min at 37°C in darkness. Fluorescence measurements were made with a Leica DM IRE2 inverted microscope fitted with a CCD camera (Imago QE Sensicam, TillPhotonics, Graefelfing, Germany). Fura-2 was excited at 340 nm and 380 nm with a Polychrome IV monochromator (Till Photonics) and the emitted fluorescence was filtered with a 510 nm longpass filter. […]

Take `Clc1ccccc1C(c1ccccc1)(c1ccccc1)n1ccnc1` [Clotrimazole, 1-[(2-chlorophenyl)diphenylmethyl]-1H-imidazole]: the IC50 with TRPM8-wt channel [1] was 1.2 µM; on TRPM8-wt channel [2], 8 ± 1 µM. Regarding `Clc1ccc(COC(Cn2ccnc2)c2ccc(Cl)cc2Cl)cc1` (stereo not drawn) [Econazole, 1-[2-[(4-chlorophenyl)methoxy]-2-(2,4-dichlorophenyl)ethyl]-1H-imidazole], on TRPM8-wt channel [2], the IC50 is 0.42 ± 0.07 µM.

Usually IC50 stands for the concentration that inhibits the measured activity by half.
